Results deposited as PubChem BioAssay AID1224826 (NIAID, 2016)

- Aim: 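Genes that change LPS-induced Tnf promoter activity in mouse macrophages when knocked down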 (primary screen)
- Cell system: RAW264.7 G9 macrophages from mouse bearing reporters for p65 (GFP) and the Tnf promoter (mCherry)
- Reagent: siRNA pool against mouse genes, 100 nM
- Timing: 16 h of LPS stimulation, after 2 days of siRNA transfection
- Challenge: bacterial lipopolysaccharide (Salmonella minnesota R595), 10 ng/ml
- Measured: 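Imaged Tnf reporter mCherry in nuclei, minus background, normalised per plate to the median and expressed as robust z-scores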
- Scale: Tnf reporter robust z-score: higher = stronger Tnf promoter reporter signal after LPS; Tnf reporter intensity: higher = stronger Tnf promoter reporter signal
- Call rule: 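a well counts as active at a score of -1.3 or below (Tlr4 knock-down control median) or above 3 (raised signal); controls and wells holding fewer than 50 cells are excluded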
- Meaning of the calls: active = Tnf reporter clearly lowered or raised; inactive = no clear change in Tnf reporter
This is a random part of about 17,000 reagents. Over the whole deposit, about 1,110 (6.6%) are marked active. 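Active means lowered or raised reporter signal; replicate intensities are raw and not normalised per plate.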

The opening 3 entries, to show the layout:
gene knocked down | PubChem SID | Tnf reporter robust z-score | fewer than 50 cells in well | Tnf reporter intensity, replicate 1 | Tnf reporter intensity, replicate 2 | outcome
Znrf2 | SID315481872 | 1.8 | enough cells in well | 166 | 239 | inactive
Sorbs2 | SID315479145 | -0.09 | enough cells in well | 175 | 182 | inactive
Pmfbp1 | SID315471590 | – | fewer than 50 cells per well; well left out of calls | 77.1 | 102 | inactive

Main list, from the start:
gene knocked down | PubChem SID | Tnf reporter robust z-score | fewer than 50 cells in well | Tnf reporter intensity, replicate 1 | Tnf reporter intensity, replicate 2 | outcome
Znrf2 | SID315481872 | 1.8 | enough cells in well | 166 | 239 | inactive
Sorbs2 | SID315479145 | -0.09 | enough cells in well | 175 | 182 | inactive
Pmfbp1 | SID315471590 | – | fewer than 50 cells per well; well left out of calls | 77.1 | 102 | inactive
Rbm48 | SID315480872 | -0.02 | enough cells in well | 96.5 | 162 | inactive
Chic2 | SID315474929 | -0.6 | enough cells in well | 206 | 156 | inactive
Fbxl9 | SID315479184 | 0.44 | enough cells in well | 142 | 235 | inactive
4932415M13Rik | SID315477688 | – | fewer than 50 cells per well; well left out of calls | 387 | 138 | inactive
Rap1a | SID315476857 | 2.11 | enough cells in well | 598 | 304 | inactive
Tnfaip8 | SID315476567 | 0.31 | enough cells in well | 234 | 162 | inactive
Nfkbie | SID315468160 | 1.24 | enough cells in well | 315 | 279 | inactive
Or11h7 | SID315479989 | 1.05 | enough cells in well | 256 | 160 | inactive
Sostdc1 | SID315472173 | -0.89 | enough cells in well | 44.1 | 63.2 | inactive
Tsfm | SID315472415 | – | fewer than 50 cells per well; well left out of calls | 120 | 71.4 | inactive
Tsnax | SID315471074 | – | fewer than 50 cells per well; well left out of calls | 58.1 | 45.6 | inactive
Rhno1 | SID315474549 | -0.93 | enough cells in well | 133 | 90.3 | inactive
Bmal1 | SID315465512 | -0.73 | enough cells in well | 113 | 144 | inactive
Ncoa2 | SID315468115 | -0.03 | enough cells in well | 279 | 188 | inactive
Trim17 | SID315471622 | -0.2 | enough cells in well | 102 | 93.5 | inactive
Tmem117 | SID315481376 | 0.44 | enough cells in well | 231 | 245 | inactive
Itk | SID315467530 | -0.57 | enough cells in well | 108 | 131 | inactive
Nkx2-9 | SID315468184 | 2.56 | enough cells in well | 334 | 293 | inactive
Fjx1 | SID315466696 | 0.5 | enough cells in well | 271 | 172 | inactive
Il25 | SID315477152 | 3.15 | enough cells in well | 404 | 222 | active
Kif5c | SID315467627 | 0.48 | enough cells in well | 232 | 208 | inactive
Sox13 | SID315469383 | -0.16 | enough cells in well | 101 | 88.4 | inactive
Kcnj11 | SID315467578 | 1.71 | enough cells in well | 376 | 238 | inactive
1700028K03Rik | SID315475309 | 0.96 | enough cells in well | 256 | 123 | inactive
Nol7 | SID315473970 | -0.75 | enough cells in well | 126 | 124 | inactive
Zfp1 | SID315470087 | -0.37 | enough cells in well | 111 | 106 | inactive
Or2k2 | SID315480544 | -0.65 | enough cells in well | 138 | 96.4 | inactive
Tmem43 | SID315474856 | -1.02 | enough cells in well | 143 | 33.6 | inactive
Or8k22 | SID315480629 | 0.01 | enough cells in well | 204 | 138 | inactive
Myt1 | SID315468088 | -0.89 | enough cells in well | 169 | 156 | inactive
Tnfrsf23 | SID315475665 | – | fewer than 50 cells per well; well left out of calls | 106 | 92.4 | inactive
Gprasp3 | SID315481672 | -0.63 | enough cells in well | 166 | 90.5 | inactive
Gapdhs | SID315466828 | -1.23 | enough cells in well | 142 | 81.9 | inactive
Gripap1 | SID315471281 | 1.25 | enough cells in well | 325 | 297 | inactive
Mlc1 | SID315477244 | 0.67 | enough cells in well | 278 | 289 | inactive
Fah | SID315466619 | -0.27 | enough cells in well | 186 | 234 | inactive
Il17c | SID315479203 | -0.73 | enough cells in well | 158 | 130 | inactive
